Assay results reported in PMC4221739.

The chains behind the UniProt entries cited, without tags or fusion partners. Where a name states a change or a piece, a line headed by the entry shows the natural chain unless it says otherwise.
UniProt P23258: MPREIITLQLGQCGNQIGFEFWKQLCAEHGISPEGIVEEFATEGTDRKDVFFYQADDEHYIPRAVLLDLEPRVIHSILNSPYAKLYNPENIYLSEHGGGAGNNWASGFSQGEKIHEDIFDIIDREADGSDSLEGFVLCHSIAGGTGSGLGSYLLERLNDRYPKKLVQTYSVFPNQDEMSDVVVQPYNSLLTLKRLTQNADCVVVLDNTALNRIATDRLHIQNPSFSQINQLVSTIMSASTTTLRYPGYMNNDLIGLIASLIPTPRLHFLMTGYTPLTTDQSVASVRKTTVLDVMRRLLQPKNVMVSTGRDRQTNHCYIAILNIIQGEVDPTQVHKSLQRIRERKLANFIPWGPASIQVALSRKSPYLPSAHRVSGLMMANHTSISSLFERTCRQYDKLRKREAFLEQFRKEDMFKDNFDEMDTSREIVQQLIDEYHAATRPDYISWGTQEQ

Tests used:
[1] = target: T1, full-length SF-Dlg3 (Streptavidin-Flag-tagged Dlg3) (UniProt P70175); assay: co-IP; SF-tagged Dlg3 variants precipitated on Strep-Tactin resin (Strep-IP) from lysates of serum starved, ciliated HEK293T cells co-transfected with Fltp-myc variants; lysis buffer 50 mM Tris/HCl pH 7.4, 150 mM NaCl, 2 mM EDTA, 1% Nonidet P-40; 1 hr at 4°C; desthiobiotin elution; western blot
T1 sequence: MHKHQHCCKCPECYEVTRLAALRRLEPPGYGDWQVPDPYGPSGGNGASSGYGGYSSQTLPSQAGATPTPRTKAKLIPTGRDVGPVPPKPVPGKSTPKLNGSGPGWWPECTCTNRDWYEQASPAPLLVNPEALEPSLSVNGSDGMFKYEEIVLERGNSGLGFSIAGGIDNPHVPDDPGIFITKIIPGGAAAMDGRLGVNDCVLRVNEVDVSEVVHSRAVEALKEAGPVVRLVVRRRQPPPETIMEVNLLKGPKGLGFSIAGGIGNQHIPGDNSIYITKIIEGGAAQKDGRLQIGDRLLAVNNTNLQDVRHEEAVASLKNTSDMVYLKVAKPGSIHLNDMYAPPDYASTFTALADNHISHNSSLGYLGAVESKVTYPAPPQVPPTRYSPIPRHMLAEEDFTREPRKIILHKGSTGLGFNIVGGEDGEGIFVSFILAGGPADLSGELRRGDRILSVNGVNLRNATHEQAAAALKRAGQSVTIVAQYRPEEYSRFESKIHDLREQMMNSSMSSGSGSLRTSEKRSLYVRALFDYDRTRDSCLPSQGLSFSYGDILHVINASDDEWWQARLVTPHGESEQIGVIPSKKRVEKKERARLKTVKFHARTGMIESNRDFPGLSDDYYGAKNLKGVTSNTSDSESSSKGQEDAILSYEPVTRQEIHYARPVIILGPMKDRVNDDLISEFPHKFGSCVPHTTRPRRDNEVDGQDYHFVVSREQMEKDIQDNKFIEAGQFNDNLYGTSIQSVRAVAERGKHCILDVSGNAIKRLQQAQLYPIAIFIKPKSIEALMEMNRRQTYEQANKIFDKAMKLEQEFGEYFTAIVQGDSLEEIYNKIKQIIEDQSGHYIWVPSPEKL

[2] = target: T1, full-length SF-Dlg3 (Streptavidin-Flag-tagged Dlg3); assay: co-IP; Strep-IP of SF Fltp and SF Dlg3 from lysates of transfected HEK293T cells; endogenous Dvl2 and γ-Tubulin detected by western blot; lysis buffer 50 mM Tris/HCl pH 7.4, 150 mM NaCl, 2 mM EDTA, 1% Nonidet P-40; 1 hr at 4°C
[3] = target: T2, SF full-length Fltp (Strep-Flag-tagged Flattop) (mouse) (UniProt Q6P8X9); assay: as above
T2 sequence: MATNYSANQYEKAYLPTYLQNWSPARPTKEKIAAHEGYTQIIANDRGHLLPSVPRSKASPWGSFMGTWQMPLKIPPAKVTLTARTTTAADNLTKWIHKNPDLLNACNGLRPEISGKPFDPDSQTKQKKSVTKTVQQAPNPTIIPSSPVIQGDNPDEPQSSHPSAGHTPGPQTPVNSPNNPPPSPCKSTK

SF-Dlg3ΔSH3 = SF-Dlg3ΔSH3 (UniProt P70175); assay: co-IP; SF-tagged Dlg3 variants precipitated on Strep-Tactin resin (Strep-IP) from lysates of serum starved, ciliated HEK293T cells co-transfected with Fltp-myc variants; lysis buffer 50 mM Tris/HCl pH 7.4, 150 mM NaCl, 2 mM EDTA, 1% Nonidet P-40; 1 hr at 4°C; desthiobiotin elution; western blot
SF-Dlg3ΔPDZ = SF-Dlg3ΔPDZ (UniProt P70175); assay: as above

## FΔNT (Fltp-myc variant lacking the N-terminus) (mouse) (domain or fragment)
[1]
  binding: no binding

## γ-Tubulin, endogenous (from UniProt P23258)
[2]
  binding: binds
[3]
  binding: binds

B1: full-length Fltp-myc (Flattop, myc-tagged) (protein, UniProt Q6P8X9 1-189)
chain: T2 sequence
SF-Dlg3ΔSH3
  binding: binds
SF-Dlg3ΔPDZ
  binding: binds

These are yes or no findings as the source states them, for the method shown. Binding seen in cells or lysates may run through a third protein. For some assays here: Binding can be weak; no strength is given. Tags and fused reporters may be left off the sequences shown.
